# Assay results as given in the supplement of paper PMC12823440, “Inhibitors supercharge kinase turnover through native proteolytic circuits” (Nature, 2025).
# Chains of the proteins cited; added tags and fusions are not shown. Lines headed by an entry give the natural chain unless they say otherwise; changes in a name come on top.
# UniProt P14616: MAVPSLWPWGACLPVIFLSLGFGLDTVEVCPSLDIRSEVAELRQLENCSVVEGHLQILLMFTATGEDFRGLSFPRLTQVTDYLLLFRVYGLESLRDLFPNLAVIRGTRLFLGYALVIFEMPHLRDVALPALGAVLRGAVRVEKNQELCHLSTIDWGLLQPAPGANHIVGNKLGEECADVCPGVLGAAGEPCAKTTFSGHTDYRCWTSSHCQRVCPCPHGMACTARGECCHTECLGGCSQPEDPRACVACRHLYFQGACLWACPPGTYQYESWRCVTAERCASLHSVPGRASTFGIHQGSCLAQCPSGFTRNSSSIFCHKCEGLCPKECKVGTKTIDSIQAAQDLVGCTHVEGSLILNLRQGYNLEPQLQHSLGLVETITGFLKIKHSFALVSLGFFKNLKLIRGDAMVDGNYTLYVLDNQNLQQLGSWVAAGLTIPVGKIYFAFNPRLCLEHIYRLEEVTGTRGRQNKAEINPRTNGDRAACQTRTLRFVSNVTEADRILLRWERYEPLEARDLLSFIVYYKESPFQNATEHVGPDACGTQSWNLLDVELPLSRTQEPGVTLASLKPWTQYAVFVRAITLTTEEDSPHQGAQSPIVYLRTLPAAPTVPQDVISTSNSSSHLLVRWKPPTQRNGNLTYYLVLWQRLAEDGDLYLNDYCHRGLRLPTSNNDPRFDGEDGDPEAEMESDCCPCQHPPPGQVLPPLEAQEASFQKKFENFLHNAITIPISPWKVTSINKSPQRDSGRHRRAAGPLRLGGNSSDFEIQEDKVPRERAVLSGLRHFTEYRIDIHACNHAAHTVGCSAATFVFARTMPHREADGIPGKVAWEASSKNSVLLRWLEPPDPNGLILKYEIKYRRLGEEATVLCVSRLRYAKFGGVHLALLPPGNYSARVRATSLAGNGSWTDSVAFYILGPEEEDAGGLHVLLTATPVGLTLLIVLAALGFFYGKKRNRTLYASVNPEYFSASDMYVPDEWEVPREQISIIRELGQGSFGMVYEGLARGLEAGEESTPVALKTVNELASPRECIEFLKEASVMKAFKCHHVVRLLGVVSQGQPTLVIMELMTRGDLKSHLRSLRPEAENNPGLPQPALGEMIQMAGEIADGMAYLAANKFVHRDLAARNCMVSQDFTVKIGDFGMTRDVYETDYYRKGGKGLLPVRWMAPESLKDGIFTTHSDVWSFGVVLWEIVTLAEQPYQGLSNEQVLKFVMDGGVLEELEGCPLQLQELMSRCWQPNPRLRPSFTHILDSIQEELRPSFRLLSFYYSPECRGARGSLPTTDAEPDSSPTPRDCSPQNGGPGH
# Where a name gives a salt, the structure may show the parent alone. The list shows a part of the results. Hit calls seldom repeat between salt and free forms of one compound.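 Kinases, fused to nanoluciferase, were expressed in K562 cells; luminescence was measured every 4 h from 2 to 18 h as percent of control (DMSO = 100%, positive control = 0%). A time point is decreased if signal falls significantly (2 sigma). Hits were called by the authors by a rule that is not shown; the count of time points alone does not decide it.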
# Biological target: HER2 (UniProt P04626)
# Assay: number of time points (of 5) at which kinase-Nluc abundance scored as decreased, DMSO-normalised (count); higher = more persistent destabilization
# Details: K562; 2-18 h
row,SMILES,number of time points
1,COc1ccc(-c2cnc3c(-c4cccc5ncccc45)cnn3c2)cc1 (10 µM),0
2,Cc1c(Br)c(Br)c2c3c1nc(N1CCNCC1)n3CCC2 [SEL120-34A (monohydrochloride)] (2.5 µM),0
3,Cc1nc(Nc2ncc(C(=O)Nc3c(C)cccc3Cl)s2)cc(N2CCN(C(=O)CCCCCCC(=O)N[C@H](C(=O)N3C[C@H](O)C[C@H]3C(=O)NCc3ccc(-c4scnc4C)cc3)C(C)(C)C)CC2)n1 (2.5 µM),2
4,CC(=O)Nc1nc(C)c(-c2ccc(Cl)c(S(=O)(=O)NCCO)c2)s1 (10 µM),0
5,CC(C)n1nc(C#Cc2ccccc2)c2c(N)ncnc21 (10 µM),0
6,COc1cc(OC)c(/C=C/S(=O)(=O)Cc2ccc(OC)c(NCC(=O)O)c2)c(OC)c1 [Rigosertib (sodium)] (10 µM),4
7,CNC[C@@H](NC(=O)c1ccc(-c2nc([C@H]3CC[C@H](O)[C@@H](F)C3)cnc2N)cc1F)c1cc(F)cc(Br)c1 [Rineterkib] (10 µM),0
8,CCCC[C@H](CO)Nc1nc(NC)ncc1OC [Interferon receptor inducer-1] (10 µM),0
9,CC(C)=C/C=C1\O[C@@H]2CC(C)=CC(=O)[C@@H]2[C@]1(C)O [Bisabolangelone] (10 µM),0
10,CCCCCC1CC1CC1CC1CCCCCCCC(=O)O (stereo not given) (10 µM),0
11,CNC(=O)c1c(C)oc2cc(Oc3ncnc4cc(OC)c(OC)cc34)ccc12 [Fruquintinib] (10 µM),0
12,CC(C)(C)S(=O)(=O)c1cc2c(Nc3ccc4scnc4c3)ccnc2cc1OCCOCCOCCOCCOCC(=O)Nc1cccc2c1CN(C1CCC(=O)NC1=O)C2=O (stereo not given) [PROTAC RIPK degrader-6] (10 µM),0
13,C[C@]1(O)C[C@@](N)(c2ccc(-c3nc4n(c3-c3ccccc3)COc3ccncc3-4)cc2)C1 [TAS-117 (hydrochloride)] (10 µM),0
14,CNC(=O)c1nnc(NC(=O)C2CC2)cc1Nc1cccc(-c2ncn(C)n2)c1OC [Deucravacitinib] (10 µM),0
15,O=c1sn(-c2cccc3ccccc23)c(=O)n1Cc1ccccc1 [Tideglusib] (10 µM),0
16,C=CC(=O)Nc1cccc(Oc2nc(Nc3ccc(N4CCN(C)CC4)cc3)ncc2Cl)c1 (2.5 µM),4
17,CNC(=O)c1ccc(-c2cnc3ncc(Cc4ccc5ncccc5c4)n3n2)cc1F [Capmatinib] (10 µM),0
18,CN(C)C(=O)c1cc2cnc(Nc3ccc(NC(=O)C4(C(=O)Nc5ccc(F)cc5)CC4)cc3)nc2n1C1CCCC1 (2 µM),0
19,Cn1cc(C2=C(c3c4n(c5ccccc35)CCC(CN)C4)C(=O)NC2=O)c2ccccc21 (stereo not given) [Bisindolylmaleimide X (hydrochloride)] (2.5 µM),0
20,COc1cc(/C=C/c2ccc(NC(=O)/C=C/c3cc(OC)c(OC)c(OC)c3)cc2)cc(OC)c1 (2.5 µM),0
21,O=C(N=c1sccn1Cc1ccccc1)c1c[nH]c2ncccc12 (10 µM),0
22,C=CCN(/C=C1/C(=O)O[C@H](COC)[C@@]2(C)C1=C(O)C(=O)C1=C2[C@H](OC(C)=O)C[C@]2(C)C(=O)CC[C@@H]12)CC=C [Sonolisib] (2.5 µM),3
23,CC(C)(C)c1ccc(C(=O)Nc2cn3cc(-n4ccnc4)ccc3n2)cc1 (10 µM),0
24,C[C@@]12CCc3occc3[C@H]1CC[C@@]13C[C@@H](CC[C@H]12)[C@@](O)(CO)C3 [Cafestol] (10 µM),0
25,O=S(=O)(c1cccc2c(Cl)cccc12)N1CCCNCC1 (10 µM),0
26,Oc1ccc2ccccc2c1SSc1c(O)ccc2ccccc12 (10 µM),0
27,COc1cc(Nc2nc3ccccc3nc2NS(=O)(=O)c2ccc(NC(=O)c3ccc(C)c(OC)c3)cc2)cc(OC)c1 (10 µM),0

# Biological target: INSRR (UniProt P14616)
# Assay: as above
# Details: K562; 2-18 h
row,SMILES,number of time points
1,CCS(=O)(=O)c1ccc(Oc2cc(O[C@@H](C)CO)cc(C(=O)Nc3ccn(C)n3)c2)cn1 (10 µM),0
2,O=C1C(=Cc2ccc(O)c(O)c2)Oc2ccccc21 (2.5 µM),0
3,CN(C)CCCNc1ccn2ncc(-c3ccc4c(c3)OCO4)c2n1 (10 µM),0
4,COc1ccc(C(=O)c2cn(C(C)C)c3ncnc(N)c23)cc1NC(=O)Nc1ccc(Cl)cc1Cl (10 µM),0
5,C[C@@H]1CN(Cc2cn[nH]c2-c2ccc(C#N)cc2)CCN1c1ccc(C(F)(F)F)cn1 (2.5 µM),0
6,O=C1c2c(O)cc(O)cc2O[C@H](c2cc(O)c(O)c(O)c2)[C@H]1O [Dihydromyricetin] (10 µM),0
7,C=CC(=O)N[C@H]1CCOC[C@H]1Nc1ncc2cc(-c3c(Cl)c(OC)cc(OC)c3Cl)ccc2n1 [Fisogatinib] (10 µM),0
8,CC(C)(O)c1cc(Nc2cc(Oc3cn(C4CC4)nc3C3CCOCC3)ccn2)ccn1 (10 µM),0
9,CC[C@H](C)[C@@H]1NC(=O)[C@@H]2CCCN2C(=O)[C@@H]2CCCN2C(=O)[C@@H]2CCCN2C(=O)[C@H](CC(C)C)NC(=O)CNC(=O)CNC(=O)[C@H](Cc2ccccc2)NC1=O [Heterophyllin B] (10 µM),0
10,COc1cc(-c2cnc(N)c(-c3ccc(NC(=O)c4cn(CC5CCOCC5)cc(-c5ccc(C)cn5)c4=O)cc3F)c2)ccc1OC[C@H]1COCCO1 [DS-1205b (free base)] (10 µM),0
11,C=CC(=O)Nc1cccc(Nc2nc(Nc3ccc(Oc4ccnc(C(=O)NC)c4)cc3)ncc2F)c1 (2.5 µM),0
12,COc1ccc(-c2cnc3c(-c4cccc5ncccc45)cnn3c2)cc1 (10 µM),0
13,Cc1c(Br)c(Br)c2c3c1nc(N1CCNCC1)n3CCC2 [SEL120-34A (monohydrochloride)] (2.5 µM),0
14,Cc1nc(Nc2ncc(C(=O)Nc3c(C)cccc3Cl)s2)cc(N2CCN(C(=O)CCCCCCC(=O)N[C@H](C(=O)N3C[C@H](O)C[C@H]3C(=O)NCc3ccc(-c4scnc4C)cc3)C(C)(C)C)CC2)n1 (2.5 µM),3
15,CC(=O)Nc1nc(C)c(-c2ccc(Cl)c(S(=O)(=O)NCCO)c2)s1 (10 µM),0
16,CC(C)n1nc(C#Cc2ccccc2)c2c(N)ncnc21 (10 µM),2
17,COc1cc(OC)c(/C=C/S(=O)(=O)Cc2ccc(OC)c(NCC(=O)O)c2)c(OC)c1 [Rigosertib (sodium)] (10 µM),2
18,CNC[C@@H](NC(=O)c1ccc(-c2nc([C@H]3CC[C@H](O)[C@@H](F)C3)cnc2N)cc1F)c1cc(F)cc(Br)c1 [Rineterkib] (10 µM),0
19,CCCC[C@H](CO)Nc1nc(NC)ncc1OC [Interferon receptor inducer-1] (10 µM),0

row,SMILES,number of time points
1,CC(C)=C/C=C1\O[C@@H]2CC(C)=CC(=O)[C@@H]2[C@]1(C)O [Bisabolangelone] (10 µM),0
2,CCCCCC1CC1CC1CC1CCCCCCCC(=O)O (stereo not given) (10 µM),0
3,CNC(=O)c1c(C)oc2cc(Oc3ncnc4cc(OC)c(OC)cc34)ccc12 [Fruquintinib] (10 µM),0
4,CC(C)(C)S(=O)(=O)c1cc2c(Nc3ccc4scnc4c3)ccnc2cc1OCCOCCOCCOCCOCC(=O)Nc1cccc2c1CN(C1CCC(=O)NC1=O)C2=O (stereo not given) [PROTAC RIPK degrader-6] (10 µM),0
5,C[C@]1(O)C[C@@](N)(c2ccc(-c3nc4n(c3-c3ccccc3)COc3ccncc3-4)cc2)C1 [TAS-117 (hydrochloride)] (10 µM),0
6,CNC(=O)c1nnc(NC(=O)C2CC2)cc1Nc1cccc(-c2ncn(C)n2)c1OC [Deucravacitinib] (10 µM),0
7,O=c1sn(-c2cccc3ccccc23)c(=O)n1Cc1ccccc1 [Tideglusib] (10 µM),0
8,C=CC(=O)Nc1cccc(Oc2nc(Nc3ccc(N4CCN(C)CC4)cc3)ncc2Cl)c1 (2.5 µM),0
9,CNC(=O)c1ccc(-c2cnc3ncc(Cc4ccc5ncccc5c4)n3n2)cc1F [Capmatinib] (10 µM),0
10,CN(C)C(=O)c1cc2cnc(Nc3ccc(NC(=O)C4(C(=O)Nc5ccc(F)cc5)CC4)cc3)nc2n1C1CCCC1 (2 µM),0
11,Cn1cc(C2=C(c3c4n(c5ccccc35)CCC(CN)C4)C(=O)NC2=O)c2ccccc21 (stereo not given) [Bisindolylmaleimide X (hydrochloride)] (2.5 µM),0
12,COc1cc(/C=C/c2ccc(NC(=O)/C=C/c3cc(OC)c(OC)c(OC)c3)cc2)cc(OC)c1 (2.5 µM),0
13,O=C(N=c1sccn1Cc1ccccc1)c1c[nH]c2ncccc12 (10 µM),0
14,C=CCN(/C=C1/C(=O)O[C@H](COC)[C@@]2(C)C1=C(O)C(=O)C1=C2[C@H](OC(C)=O)C[C@]2(C)C(=O)CC[C@@H]12)CC=C [Sonolisib] (2.5 µM),0
15,CC(C)(C)c1ccc(C(=O)Nc2cn3cc(-n4ccnc4)ccc3n2)cc1 (10 µM),0
16,C[C@@]12CCc3occc3[C@H]1CC[C@@]13C[C@@H](CC[C@H]12)[C@@](O)(CO)C3 [Cafestol] (10 µM),0
17,O=S(=O)(c1cccc2c(Cl)cccc12)N1CCCNCC1 (10 µM),0
18,Oc1ccc2ccccc2c1SSc1c(O)ccc2ccccc12 (10 µM),0
19,COc1cc(Nc2nc3ccccc3nc2NS(=O)(=O)c2ccc(NC(=O)c3ccc(C)c(OC)c3)cc2)cc(OC)c1 (10 µM),0
